Experimental findings from the supplement of paper PMC10849652 are described below.

Sequences of proteins named here, by UniProt entry; tags and fusion partners are left off. A change or cut given only in a name is not applied to a line headed by its entry.
UniProt Q9UIF9: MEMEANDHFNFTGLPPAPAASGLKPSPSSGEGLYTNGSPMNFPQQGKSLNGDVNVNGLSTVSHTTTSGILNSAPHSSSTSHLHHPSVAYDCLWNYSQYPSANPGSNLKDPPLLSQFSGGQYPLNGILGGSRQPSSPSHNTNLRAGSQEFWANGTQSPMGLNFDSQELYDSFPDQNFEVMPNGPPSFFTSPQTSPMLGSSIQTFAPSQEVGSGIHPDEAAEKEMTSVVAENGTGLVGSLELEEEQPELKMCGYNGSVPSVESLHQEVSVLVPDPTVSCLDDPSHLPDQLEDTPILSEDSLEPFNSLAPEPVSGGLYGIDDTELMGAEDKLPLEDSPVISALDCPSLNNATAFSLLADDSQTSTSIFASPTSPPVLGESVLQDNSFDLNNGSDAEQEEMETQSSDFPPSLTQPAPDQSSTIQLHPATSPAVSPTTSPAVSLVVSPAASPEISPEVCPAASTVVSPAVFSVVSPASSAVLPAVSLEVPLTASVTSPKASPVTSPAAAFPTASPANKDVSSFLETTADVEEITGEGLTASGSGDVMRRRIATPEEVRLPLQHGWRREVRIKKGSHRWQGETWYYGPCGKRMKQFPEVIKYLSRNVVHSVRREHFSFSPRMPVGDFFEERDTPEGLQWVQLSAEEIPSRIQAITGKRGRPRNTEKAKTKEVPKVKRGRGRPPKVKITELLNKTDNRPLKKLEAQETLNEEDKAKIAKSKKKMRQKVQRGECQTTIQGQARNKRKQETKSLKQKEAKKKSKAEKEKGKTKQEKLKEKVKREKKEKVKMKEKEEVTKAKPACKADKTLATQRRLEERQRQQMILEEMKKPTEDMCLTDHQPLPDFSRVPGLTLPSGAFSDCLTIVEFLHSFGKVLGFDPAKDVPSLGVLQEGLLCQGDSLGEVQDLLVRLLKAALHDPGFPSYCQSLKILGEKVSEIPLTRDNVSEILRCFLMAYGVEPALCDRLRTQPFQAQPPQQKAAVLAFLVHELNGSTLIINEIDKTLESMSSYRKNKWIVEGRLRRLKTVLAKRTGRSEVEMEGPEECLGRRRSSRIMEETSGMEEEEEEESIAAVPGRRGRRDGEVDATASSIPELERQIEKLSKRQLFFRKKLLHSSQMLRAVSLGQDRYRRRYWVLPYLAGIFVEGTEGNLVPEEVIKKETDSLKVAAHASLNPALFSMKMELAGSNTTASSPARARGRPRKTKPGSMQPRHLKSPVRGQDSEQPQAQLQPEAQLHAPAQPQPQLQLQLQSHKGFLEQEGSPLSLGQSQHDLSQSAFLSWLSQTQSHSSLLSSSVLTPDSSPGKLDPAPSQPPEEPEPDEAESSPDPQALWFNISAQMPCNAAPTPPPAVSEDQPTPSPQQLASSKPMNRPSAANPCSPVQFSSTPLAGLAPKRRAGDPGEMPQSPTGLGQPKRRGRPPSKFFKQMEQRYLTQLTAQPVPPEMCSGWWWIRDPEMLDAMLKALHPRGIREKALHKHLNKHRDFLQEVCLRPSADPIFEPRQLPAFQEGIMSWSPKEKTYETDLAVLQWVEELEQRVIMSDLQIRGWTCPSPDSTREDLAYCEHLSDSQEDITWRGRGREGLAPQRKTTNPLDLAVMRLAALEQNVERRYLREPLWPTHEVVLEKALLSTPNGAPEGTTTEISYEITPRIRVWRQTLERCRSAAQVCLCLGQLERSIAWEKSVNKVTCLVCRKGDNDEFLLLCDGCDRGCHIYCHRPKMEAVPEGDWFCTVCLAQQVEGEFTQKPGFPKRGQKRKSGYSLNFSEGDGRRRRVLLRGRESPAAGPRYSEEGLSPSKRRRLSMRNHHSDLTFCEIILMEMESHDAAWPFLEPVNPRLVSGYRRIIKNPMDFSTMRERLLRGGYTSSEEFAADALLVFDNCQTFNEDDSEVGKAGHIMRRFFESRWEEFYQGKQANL
UniProt Q96IK1: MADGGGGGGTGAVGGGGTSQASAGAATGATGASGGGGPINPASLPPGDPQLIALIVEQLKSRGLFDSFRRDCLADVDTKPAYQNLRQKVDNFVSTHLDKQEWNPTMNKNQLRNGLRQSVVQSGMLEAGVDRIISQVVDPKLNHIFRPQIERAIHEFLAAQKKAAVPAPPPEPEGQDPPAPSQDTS
UniProt Q9NZM4: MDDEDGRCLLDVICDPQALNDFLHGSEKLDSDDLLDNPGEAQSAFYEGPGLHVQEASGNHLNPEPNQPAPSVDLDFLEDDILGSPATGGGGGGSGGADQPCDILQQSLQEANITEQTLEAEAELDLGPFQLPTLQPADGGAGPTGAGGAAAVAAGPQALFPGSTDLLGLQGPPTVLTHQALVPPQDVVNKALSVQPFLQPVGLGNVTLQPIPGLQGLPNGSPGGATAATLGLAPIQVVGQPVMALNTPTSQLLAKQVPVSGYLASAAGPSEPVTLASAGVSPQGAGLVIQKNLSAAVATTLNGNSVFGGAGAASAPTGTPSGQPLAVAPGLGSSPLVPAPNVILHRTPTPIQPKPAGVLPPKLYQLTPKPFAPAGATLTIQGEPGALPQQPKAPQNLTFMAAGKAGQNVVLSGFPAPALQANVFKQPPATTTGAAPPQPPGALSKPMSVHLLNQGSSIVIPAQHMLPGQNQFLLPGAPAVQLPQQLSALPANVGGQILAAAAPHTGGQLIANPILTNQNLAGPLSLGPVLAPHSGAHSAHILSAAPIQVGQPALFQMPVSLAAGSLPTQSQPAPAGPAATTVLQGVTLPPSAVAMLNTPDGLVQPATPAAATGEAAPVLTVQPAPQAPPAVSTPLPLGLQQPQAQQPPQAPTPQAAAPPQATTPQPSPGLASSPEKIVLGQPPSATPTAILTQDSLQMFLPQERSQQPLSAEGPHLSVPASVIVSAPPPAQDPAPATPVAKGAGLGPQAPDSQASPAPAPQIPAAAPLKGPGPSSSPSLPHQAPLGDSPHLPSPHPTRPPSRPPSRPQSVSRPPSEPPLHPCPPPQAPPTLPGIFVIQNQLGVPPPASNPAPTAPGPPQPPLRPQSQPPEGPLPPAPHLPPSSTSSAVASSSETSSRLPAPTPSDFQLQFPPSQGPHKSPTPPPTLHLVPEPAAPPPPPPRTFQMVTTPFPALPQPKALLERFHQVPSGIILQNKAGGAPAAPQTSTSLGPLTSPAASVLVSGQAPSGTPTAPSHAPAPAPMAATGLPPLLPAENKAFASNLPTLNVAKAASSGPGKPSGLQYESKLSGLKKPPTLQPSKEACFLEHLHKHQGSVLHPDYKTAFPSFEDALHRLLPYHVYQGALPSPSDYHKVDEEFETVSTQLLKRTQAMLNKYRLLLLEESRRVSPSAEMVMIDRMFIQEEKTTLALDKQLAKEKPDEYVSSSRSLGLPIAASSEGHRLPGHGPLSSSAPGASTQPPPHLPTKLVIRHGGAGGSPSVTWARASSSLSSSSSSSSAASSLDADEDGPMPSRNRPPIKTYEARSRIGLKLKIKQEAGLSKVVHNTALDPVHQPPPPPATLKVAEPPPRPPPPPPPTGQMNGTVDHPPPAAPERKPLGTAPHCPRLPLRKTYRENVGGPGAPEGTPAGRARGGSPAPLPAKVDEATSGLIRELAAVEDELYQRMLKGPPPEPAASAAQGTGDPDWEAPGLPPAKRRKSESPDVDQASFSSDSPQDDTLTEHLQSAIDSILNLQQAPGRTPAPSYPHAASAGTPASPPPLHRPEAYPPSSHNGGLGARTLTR
UniProt O43505: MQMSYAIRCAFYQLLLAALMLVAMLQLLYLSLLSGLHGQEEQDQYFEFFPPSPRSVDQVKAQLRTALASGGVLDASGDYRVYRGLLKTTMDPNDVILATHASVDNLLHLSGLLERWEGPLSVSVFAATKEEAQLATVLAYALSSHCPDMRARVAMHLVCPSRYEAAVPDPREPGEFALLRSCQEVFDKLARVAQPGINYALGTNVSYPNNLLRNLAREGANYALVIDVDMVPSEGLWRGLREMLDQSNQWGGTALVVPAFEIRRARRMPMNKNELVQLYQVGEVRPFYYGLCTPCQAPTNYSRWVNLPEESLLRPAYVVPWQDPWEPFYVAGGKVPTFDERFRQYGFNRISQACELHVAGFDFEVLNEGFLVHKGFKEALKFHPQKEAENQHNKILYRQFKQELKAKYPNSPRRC
UniProt Q9H8M2, whole entry, looked up: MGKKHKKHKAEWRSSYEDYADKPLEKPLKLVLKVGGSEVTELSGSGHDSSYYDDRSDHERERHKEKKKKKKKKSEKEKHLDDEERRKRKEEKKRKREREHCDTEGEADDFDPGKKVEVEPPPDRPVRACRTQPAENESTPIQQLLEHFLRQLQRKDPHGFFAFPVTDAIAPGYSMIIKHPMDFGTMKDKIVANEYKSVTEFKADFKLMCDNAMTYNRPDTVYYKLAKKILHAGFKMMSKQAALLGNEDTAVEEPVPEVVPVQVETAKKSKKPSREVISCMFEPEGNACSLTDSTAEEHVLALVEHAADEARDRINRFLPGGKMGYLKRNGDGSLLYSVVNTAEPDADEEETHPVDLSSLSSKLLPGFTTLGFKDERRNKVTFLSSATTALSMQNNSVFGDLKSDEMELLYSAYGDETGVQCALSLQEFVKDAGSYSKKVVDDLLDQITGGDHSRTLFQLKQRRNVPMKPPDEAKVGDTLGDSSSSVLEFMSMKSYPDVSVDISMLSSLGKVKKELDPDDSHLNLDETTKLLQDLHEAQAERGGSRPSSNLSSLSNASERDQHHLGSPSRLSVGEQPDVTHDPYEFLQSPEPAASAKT
UniProt Q14201: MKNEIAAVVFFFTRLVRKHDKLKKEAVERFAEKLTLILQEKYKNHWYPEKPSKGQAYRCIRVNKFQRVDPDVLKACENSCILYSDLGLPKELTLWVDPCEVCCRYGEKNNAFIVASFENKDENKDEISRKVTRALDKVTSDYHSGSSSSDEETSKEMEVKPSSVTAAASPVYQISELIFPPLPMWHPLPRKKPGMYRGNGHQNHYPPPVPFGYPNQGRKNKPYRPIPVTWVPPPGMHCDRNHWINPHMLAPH
UniProt O60238, whole entry, looked up: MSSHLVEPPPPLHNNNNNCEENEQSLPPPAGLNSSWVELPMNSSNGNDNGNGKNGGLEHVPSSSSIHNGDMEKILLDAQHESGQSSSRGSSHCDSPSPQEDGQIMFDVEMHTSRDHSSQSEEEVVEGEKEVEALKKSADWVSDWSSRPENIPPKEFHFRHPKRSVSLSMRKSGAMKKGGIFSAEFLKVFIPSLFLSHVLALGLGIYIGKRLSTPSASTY
UniProt Q9BX70: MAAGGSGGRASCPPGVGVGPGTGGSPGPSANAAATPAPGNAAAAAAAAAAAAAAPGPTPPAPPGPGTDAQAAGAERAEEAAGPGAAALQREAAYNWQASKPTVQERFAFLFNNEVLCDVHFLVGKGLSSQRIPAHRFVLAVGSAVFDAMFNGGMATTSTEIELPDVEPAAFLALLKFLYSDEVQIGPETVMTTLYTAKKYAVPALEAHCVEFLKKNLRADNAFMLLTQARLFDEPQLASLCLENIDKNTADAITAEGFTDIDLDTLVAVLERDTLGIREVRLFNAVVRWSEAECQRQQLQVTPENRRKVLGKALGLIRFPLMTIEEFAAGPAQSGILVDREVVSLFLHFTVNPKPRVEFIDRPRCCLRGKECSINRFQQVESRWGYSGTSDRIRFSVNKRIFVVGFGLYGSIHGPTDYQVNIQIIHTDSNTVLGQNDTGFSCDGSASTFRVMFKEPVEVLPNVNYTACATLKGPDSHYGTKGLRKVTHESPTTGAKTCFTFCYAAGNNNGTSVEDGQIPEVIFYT
UniProt Q8TDL5: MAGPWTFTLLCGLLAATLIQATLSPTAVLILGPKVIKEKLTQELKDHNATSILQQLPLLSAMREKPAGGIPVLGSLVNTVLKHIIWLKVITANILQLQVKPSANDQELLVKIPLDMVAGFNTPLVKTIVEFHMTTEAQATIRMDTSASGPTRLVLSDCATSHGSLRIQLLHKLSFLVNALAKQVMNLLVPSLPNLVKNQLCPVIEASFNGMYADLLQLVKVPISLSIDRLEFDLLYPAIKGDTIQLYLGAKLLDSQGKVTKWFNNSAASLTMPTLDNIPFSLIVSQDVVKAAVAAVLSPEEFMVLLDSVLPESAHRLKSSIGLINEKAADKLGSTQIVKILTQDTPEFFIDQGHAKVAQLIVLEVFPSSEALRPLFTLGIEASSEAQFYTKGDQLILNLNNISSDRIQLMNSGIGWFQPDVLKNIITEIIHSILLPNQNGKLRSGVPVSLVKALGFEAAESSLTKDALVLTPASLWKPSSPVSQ
UniProt Q9HAW0, whole entry, looked up: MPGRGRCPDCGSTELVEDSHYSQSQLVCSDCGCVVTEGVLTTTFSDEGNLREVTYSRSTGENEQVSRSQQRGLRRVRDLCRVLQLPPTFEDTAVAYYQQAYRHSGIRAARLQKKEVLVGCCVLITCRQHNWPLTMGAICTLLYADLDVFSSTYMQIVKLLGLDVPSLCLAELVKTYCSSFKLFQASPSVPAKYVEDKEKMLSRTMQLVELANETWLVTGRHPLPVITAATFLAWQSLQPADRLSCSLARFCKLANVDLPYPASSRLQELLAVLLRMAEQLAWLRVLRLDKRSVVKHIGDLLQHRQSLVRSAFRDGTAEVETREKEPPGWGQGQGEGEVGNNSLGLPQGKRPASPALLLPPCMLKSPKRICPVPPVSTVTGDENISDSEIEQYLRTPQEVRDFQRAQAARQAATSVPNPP

This is one part of the list.

Compound in the first assay: CCCS(=O)(=O)Nc1ccc(F)c(C(=O)c2c[nH]c3ncc(Cl)cc23)c1F
As to the kind of experiment: log2 fold change, soluble protein after heating vs DMSO (PISA); higher = thermal stabilisation; K562 lysate, 10 uM; active = over 0.2 and 3.5 SD of the protein, either way, in both replicates (recomputed). The method, boiled down:
(§1)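 Log-two fold change in thermal stability relative to solvent controls is reported from duplicates. For each sample, crude K562 extract from dounce-homogenised pellets in PBS pH 7.4 with 1 mM MgCl2, at 1 mg/mL protein, was treated with 10 μM compound for 30 min. Aliquots heated for 3 min across 48°C-58°C were pooled, brought to 0.5% NP-40 at 4°C and cleared at 21,000xg for 90 min. The supernatant was quantified by TMTpro 16plex LC-MS/MS with channel sums equalised.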
With BAZ2A (UniProt Q9UIF9), the log2 fold change is inactive: -0.25.
BTBD9 (UniProt Q96Q07): the log2 fold change is inactive: 0.214.
For BLVRA (UniProt C9J1E1), the log2 fold change is inactive: -0.083.
Same read-out and setting: to BSCL2 isoform 4 (UniProt Q96G97) belongs inactive: 0.092.
For the target BOD1 (UniProt Q96IK1), the log2 fold change is inactive: -0.313.
Still for that read-out and setting: with BICRA (UniProt Q9NZM4) the figure was inactive: 0.055.

Compound in the next assay: CCN(CCCOc1ccc2c(Nc3cc(CC(=O)Nc4cccc(F)c4)[nH]n3)ncnc2c1)CCOP(=O)(O)O [barasertib]
The assay is described as above. The method, boiled down: as §1
Take BIN3 (UniProt Q9NQY0): the log2 fold change is inactive: 0.126.
On the same count and under the same terms, with BAHD1 (UniProt Q8TBE0) the figure was inactive: -0.102; with B4GAT1 (UniProt O43505), inactive: 0.049.
The same measure, in the same setting: with BPIFA2 (UniProt Q96DR5) the figure was inactive: -1.07.
Same read-out and setting: with BICRA (UniProt Q9NZM4) the figure was inactive: 0.165; with BTBD10 isoform 2 (UniProt Q9BSF8), inactive: 0.353.
With BCL2 (UniProt P10415), the log2 fold change was inactive: 0.088.

Compound in a further assay: CC[C@@H]1C(=O)N(C)c2cnc(Nc3ccc(C(=O)NC4CCN(C)CC4)cc3OC)nc2N1C1CCCC1
The assay is described as above. The method, boiled down: as §1
With BAZ2A (UniProt Q9UIF9), the log2 fold change is inactive: 0.024.
On the same count and under the same terms, with BDP1 (UniProt A6H8Y1) the figure was inactive: -0.006.
Same read-out and setting: with BRD9 (UniProt Q9H8M2) the figure was inactive: -0.23; with BANP isoform 7 (UniProt Q8N9N5), inactive: 0.02; with BTG3 isoform 2 (UniProt Q14201), inactive: -0.098.
On the same count and under the same terms, with BNIP3L (UniProt O60238) the figure was inactive: 0.108; with BTBD2 (UniProt Q9BX70), inactive: -0.027; with BPIFA2 (UniProt Q96DR5), inactive: -0.276.
Consider BEGAIN, A0A1B0GVM0, for which the log2 fold change was inactive: -0.063.
On the same count and under the same terms, to BPIFB1 (UniProt Q8TDL5) belongs inactive: -0.938; to BBX (UniProt Q8WY36), inactive: -0.247; to BRF2 (UniProt Q9HAW0), inactive: 0.006.
Same read-out and setting: with BICRAL (UniProt Q6AI39) the figure was inactive: 0.29.

Compound in a further assay: CC[C@@H]1C(=O)N(C)c2cnc(Nc3ccc(C(=O)N[C@H]4CC[C@H](N5CCN(CC6CC6)CC5)CC4)cc3OC)nc2N1C(C)C [volasertib]
Described as above. An outline of the steps:
as §1
Turning to BAZ2A (UniProt Q9UIF9), the log2 fold change is inactive: -0.081.
On the same count and under the same terms, with BTBD9 (UniProt Q96Q07) the figure was inactive: -0.079.
Still for that read-out and setting: to BLVRA (UniProt C9J1E1) belongs inactive: -0.018; to BSCL2 isoform 4 (UniProt Q96G97), inactive: 0.019; to BOD1 (UniProt Q96IK1), inactive: -0.071.
On the same count and under the same terms, with BICRA (UniProt Q9NZM4) the figure was inactive: 0.036.
